Laboratory results from paper doi:10.1101/2021.12.10.472004 (bioRxiv, 2021).
No constants are given. Whether binding was seen depends on the method and setting. For some assays here: Binding seen in cells or lysates may run through a third protein. Some binding calls cover weakened binding; strength is not graded here.

Sequences of proteins named here, by UniProt entry; tags and fusion partners are left off.
UniProt P02730: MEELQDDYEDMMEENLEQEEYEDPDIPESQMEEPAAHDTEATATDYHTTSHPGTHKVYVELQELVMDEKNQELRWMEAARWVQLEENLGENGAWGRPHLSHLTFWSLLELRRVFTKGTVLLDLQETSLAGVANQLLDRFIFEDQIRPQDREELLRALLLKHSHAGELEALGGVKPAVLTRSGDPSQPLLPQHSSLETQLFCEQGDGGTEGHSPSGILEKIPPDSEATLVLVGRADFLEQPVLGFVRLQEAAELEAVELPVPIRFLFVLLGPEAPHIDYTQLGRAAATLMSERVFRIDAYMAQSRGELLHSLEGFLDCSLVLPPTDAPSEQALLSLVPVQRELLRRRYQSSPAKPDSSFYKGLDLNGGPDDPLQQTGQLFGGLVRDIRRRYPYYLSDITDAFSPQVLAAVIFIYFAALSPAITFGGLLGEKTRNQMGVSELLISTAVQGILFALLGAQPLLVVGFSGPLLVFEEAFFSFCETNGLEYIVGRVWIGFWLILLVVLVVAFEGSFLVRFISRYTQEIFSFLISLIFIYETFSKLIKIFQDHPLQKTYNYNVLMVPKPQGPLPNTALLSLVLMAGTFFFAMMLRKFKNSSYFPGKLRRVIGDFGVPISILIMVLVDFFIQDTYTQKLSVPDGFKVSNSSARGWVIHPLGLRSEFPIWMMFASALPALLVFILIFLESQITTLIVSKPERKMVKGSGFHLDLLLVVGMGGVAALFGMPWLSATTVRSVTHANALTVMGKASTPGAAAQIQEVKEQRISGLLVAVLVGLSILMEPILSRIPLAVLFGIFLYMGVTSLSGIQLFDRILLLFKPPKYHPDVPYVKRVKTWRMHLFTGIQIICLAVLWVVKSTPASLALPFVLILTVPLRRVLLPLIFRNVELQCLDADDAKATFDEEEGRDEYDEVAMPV
UniProt P29144: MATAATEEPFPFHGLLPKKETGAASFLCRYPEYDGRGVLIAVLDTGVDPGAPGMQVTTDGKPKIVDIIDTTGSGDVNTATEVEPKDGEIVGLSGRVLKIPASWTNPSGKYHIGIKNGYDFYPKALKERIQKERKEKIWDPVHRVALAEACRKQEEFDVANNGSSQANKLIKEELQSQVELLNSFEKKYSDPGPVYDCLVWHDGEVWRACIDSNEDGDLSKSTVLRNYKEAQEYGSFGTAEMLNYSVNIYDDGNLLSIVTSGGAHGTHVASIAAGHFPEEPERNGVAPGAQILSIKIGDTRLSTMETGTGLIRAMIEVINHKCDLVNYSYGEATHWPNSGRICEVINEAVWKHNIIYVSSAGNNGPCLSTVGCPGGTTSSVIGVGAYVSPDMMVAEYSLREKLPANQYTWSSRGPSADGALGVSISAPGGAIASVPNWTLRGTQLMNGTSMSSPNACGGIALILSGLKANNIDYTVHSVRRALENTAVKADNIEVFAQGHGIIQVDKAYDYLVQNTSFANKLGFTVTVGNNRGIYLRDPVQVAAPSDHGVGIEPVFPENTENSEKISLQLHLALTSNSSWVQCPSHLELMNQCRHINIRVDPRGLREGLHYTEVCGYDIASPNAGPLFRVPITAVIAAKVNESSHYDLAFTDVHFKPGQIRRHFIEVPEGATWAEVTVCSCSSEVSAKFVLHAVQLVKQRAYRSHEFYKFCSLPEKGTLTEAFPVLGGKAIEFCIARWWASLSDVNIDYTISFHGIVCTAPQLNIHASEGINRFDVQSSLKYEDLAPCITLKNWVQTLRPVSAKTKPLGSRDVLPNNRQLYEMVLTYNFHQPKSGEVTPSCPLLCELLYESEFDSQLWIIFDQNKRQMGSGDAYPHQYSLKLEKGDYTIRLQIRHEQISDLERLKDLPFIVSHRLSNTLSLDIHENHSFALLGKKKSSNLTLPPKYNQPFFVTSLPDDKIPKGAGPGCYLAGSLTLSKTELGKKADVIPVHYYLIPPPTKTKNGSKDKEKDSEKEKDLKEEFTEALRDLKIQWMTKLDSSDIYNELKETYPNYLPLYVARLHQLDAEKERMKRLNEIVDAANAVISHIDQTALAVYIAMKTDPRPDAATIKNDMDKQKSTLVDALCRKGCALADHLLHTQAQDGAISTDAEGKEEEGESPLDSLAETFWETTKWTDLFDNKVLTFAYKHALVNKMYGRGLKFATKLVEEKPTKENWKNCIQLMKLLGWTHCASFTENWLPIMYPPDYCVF
UniProt P16157: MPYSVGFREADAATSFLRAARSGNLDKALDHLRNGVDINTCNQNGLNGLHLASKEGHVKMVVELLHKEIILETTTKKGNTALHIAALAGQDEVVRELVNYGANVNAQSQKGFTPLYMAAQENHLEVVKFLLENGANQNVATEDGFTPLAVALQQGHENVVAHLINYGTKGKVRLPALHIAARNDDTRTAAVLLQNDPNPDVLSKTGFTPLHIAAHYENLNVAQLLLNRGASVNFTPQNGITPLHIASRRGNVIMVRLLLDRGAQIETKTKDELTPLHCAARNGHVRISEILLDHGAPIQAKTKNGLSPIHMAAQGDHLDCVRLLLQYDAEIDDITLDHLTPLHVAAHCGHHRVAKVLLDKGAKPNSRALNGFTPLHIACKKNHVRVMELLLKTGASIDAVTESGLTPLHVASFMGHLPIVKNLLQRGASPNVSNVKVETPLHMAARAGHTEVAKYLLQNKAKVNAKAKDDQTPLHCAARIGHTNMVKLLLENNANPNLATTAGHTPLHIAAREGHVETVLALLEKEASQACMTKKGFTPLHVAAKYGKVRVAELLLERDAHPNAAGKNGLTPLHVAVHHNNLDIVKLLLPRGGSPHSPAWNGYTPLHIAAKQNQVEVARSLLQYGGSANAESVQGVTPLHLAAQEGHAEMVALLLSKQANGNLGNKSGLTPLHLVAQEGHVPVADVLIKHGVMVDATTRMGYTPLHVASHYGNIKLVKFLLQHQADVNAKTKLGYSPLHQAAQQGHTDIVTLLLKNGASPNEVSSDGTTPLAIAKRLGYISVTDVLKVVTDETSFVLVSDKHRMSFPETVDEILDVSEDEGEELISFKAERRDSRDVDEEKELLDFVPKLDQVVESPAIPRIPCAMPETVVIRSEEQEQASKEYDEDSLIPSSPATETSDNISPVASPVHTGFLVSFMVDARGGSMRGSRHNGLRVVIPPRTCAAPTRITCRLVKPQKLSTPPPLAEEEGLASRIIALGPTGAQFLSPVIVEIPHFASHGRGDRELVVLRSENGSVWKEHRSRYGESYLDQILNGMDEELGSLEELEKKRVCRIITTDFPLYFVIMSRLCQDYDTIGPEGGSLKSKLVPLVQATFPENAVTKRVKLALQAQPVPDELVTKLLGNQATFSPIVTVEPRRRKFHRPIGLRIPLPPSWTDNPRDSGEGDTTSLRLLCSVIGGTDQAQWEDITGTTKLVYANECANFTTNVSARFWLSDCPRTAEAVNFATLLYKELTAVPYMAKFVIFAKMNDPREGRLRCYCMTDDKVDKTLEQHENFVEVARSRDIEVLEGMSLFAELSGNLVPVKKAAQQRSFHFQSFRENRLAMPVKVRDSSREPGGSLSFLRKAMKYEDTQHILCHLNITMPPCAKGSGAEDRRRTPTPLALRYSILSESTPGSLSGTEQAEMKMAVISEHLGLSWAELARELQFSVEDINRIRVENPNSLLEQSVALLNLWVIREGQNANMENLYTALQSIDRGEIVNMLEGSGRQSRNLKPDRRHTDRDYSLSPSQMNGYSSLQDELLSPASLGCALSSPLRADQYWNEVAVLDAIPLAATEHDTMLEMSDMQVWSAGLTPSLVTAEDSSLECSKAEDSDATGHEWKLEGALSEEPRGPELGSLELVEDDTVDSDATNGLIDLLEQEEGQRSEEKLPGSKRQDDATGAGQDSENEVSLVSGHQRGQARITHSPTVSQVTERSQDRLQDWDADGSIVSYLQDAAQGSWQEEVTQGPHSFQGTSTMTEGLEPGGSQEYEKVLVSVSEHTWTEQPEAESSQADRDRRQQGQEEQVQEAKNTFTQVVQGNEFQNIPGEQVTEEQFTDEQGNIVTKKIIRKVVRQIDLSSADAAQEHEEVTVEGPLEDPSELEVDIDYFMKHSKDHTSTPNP
UniProt P11166: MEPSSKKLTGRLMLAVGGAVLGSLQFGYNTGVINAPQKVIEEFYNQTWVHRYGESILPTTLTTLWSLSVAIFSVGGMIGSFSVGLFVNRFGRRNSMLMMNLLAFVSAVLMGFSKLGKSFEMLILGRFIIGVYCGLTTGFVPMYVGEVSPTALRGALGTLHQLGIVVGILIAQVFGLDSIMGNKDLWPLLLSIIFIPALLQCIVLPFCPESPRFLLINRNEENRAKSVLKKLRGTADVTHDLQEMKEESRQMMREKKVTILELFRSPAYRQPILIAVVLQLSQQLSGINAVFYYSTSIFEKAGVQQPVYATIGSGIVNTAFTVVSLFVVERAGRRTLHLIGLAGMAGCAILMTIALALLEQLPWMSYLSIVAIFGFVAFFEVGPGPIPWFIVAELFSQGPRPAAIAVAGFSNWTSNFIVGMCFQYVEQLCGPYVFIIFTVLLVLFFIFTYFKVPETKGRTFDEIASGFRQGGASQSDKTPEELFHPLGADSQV
UniProt P04406: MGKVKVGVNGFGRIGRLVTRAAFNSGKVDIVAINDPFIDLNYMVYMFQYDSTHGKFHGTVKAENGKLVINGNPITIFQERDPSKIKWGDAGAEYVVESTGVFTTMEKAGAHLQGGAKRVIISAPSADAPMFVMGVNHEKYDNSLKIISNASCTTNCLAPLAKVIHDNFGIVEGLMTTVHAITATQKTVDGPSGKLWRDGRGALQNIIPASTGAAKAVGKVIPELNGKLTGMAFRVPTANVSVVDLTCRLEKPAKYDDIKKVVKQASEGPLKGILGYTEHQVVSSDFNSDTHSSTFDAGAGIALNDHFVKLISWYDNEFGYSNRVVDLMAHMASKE

T1: Band 4.2 (human (endogenous in red blood cells)) (UniProt P16452)
T1 sequence: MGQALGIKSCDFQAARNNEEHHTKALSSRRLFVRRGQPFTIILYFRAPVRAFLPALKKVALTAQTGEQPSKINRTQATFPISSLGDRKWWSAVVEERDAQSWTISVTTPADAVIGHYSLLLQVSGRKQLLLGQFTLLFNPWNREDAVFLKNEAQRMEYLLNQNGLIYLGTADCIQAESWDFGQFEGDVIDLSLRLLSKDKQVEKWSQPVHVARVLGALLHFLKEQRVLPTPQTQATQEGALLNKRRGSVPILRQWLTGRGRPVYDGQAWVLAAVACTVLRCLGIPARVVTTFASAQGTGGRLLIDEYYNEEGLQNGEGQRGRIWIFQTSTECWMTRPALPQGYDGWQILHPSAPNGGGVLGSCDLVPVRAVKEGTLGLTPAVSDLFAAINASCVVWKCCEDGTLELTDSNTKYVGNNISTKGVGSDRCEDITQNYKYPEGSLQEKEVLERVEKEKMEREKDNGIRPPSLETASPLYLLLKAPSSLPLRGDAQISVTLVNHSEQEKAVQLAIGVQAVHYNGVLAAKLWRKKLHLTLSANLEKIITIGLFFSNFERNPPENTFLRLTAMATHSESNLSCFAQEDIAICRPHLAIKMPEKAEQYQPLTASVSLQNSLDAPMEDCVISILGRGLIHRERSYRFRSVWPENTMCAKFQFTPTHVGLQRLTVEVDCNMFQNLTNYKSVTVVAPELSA


Assays:
[1] = biological target: Band 3 (human (endogenous in red blood cells)) (UniProt P02730); experiment: cross-linking
[2] = biological target: Tripeptidyl-peptidase 2 (human (endogenous in red blood cells)) (UniProt P29144); experiment: negative stain electron microscopy
[3] = biological target: T1, Band 4.2 (human (endogenous in red blood cells)); experiment: cross-linking
[4] = biological target: band 3-Ank1 complex (human (endogenous in red blood cells)) (UniProt P02730+P16157); experiment: cross-linking

Row | binding [1] | binding [3] | Molecule | further results
1 | binds | binds | GlutI (from UniProt P11166 1-492) | 
2 | binds | binds | RhAG (protein, UniProt Q02094 1-409) MRFTFPLMAIVLEIAMIVLFGLFVEYETDQTVLEQLNITKPTDMGIFFELYPLFQDVHVMIFVGFGFLMTFLKKYGFSSVGINLLVAALGLQWGTIVQGILQSQGQKFNIGIKNMINADFSAATVLISFGAVLGKTSPTQMLIMTILEIVFFAHNEYLVSEIFKASDIGASMTIHAFGAYFGLAVAGILYRSGLRKGHENEESAYYSDLFAMIGTLFLWMFWPSFNSAIAEPGDKQCRAIVNTYFSLAACVLTAFAFSSLVEHRGKLNMVHIQNATLAGGVAVGTCADMAIHPFGSMIIGSIAGMVSVLGYKFLTPLFTTKLRIHDTCGVHNLHGLPGVVGGLAGIVAVAMGASNTSMAMQAAALGSSIGTAVVGGLMTGLILKLPLWGQPSDQNCYDDSVYWKVPKTR | 

Second part, the molecule before the results:

Row | Molecule | binding [1] | binding [3] | further results
3 | Ankyrin 1 (from UniProt P16157 1-1881) | binds |  | 
4 | Tripeptidyl-peptidase 2 (from UniProt P29144 1-1249) (enzyme) |  |  | binding [2]: binds
5 | glyceraldehyde-3-phosphate dehydrogenase (from UniProt P04406 1-335) (enzyme) |  |  | binding [4]: binds
6 | Band 4.2 (protein, UniProt P16452 1-691) MGQALGIKSCDFQAARNNEEHHTKALSSRRLFVRRGQPFTIILYFRAPVRAFLPALKKVALTAQTGEQPSKINRTQATFPISSLGDRKWWSAVVEERDAQSWTISVTTPADAVIGHYSLLLQVSGRKQLLLGQFTLLFNPWNREDAVFLKNEAQRMEYLLNQNGLIYLGTADCIQAESWDFGQFEGDVIDLSLRLLSKDKQVEKWSQPVHVARVLGALLHFLKEQRVLPTPQTQATQEGALLNKRRGSVPILRQWLTGRGRPVYDGQAWVLAAVACTVLRCLGIPARVVTTFASAQGTGGRLLIDEYYNEEGLQNGEGQRGRIWIFQTSTECWMTRPALPQGYDGWQILHPSAPNGGGVLGSCDLVPVRAVKEGTLGLTPAVSDLFAAINASCVVWKCCEDGTLELTDSNTKYVGNNISTKGVGSDRCEDITQNYKYPEGSLQEKEVLERVEKEKMEREKDNGIRPPSLETASPLYLLLKAPSSLPLRGDAQISVTLVNHSEQEKAVQLAIGVQAVHYNGVLAAKLWRKKLHLTLSANLEKIITIGLFFSNFERNPPENTFLRLTAMATHSESNLSCFAQEDIAICRPHLAIKMPEKAEQYQPLTASVSLQNSLDAPMEDCVISILGRGLIHRERSYRFRSVWPENTMCAKFQFTPTHVGLQRLTVEVDCNMFQNLTNYKSVTVVAPELSA | binds |  | 
